The subject of this experiment is HEK293A TEAD-LUC reporter. The experiment is described as follows: TEAD-luciferase reporter activity (YAP activation), robust Z score vs plate; higher = stronger YAP/TEAD activation. The conditions noted are these: 24 h.

Structures can show the parent of a compound that is named as a salt. This is one part of the list. Repeats in this data set agree poorly, so a single value says little.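 In a drug-repurposing library screen, luminescence reads luciferase driven by eight TEAD-binding elements, stably integrated into human kidney-derived cells. Compounds scoring over five robust Z scores above the plate mean are called hits.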

Take `CC(=O)N1CCCN(C(=O)c2ccc3nccn3c2)CC1`: the TEAD-luciferase reporter activity was inactive: -1.16 (compound concentration: 200 nM) and inactive: 2.34 (compound concentration: 10 uM).

Take `CCC(OC)(c1cccc(OCc2ccc3ccccc3c2)c1)c1nccs1` (centres undefined): the TEAD-luciferase reporter activity is inactive: 0.0504 (compound concentration: 200 nM), inactive: 4.57 (compound concentration: 2 uM) and inactive: 4.87 (compound concentration: 10 uM).

As to `COc1cc(Cc2cnc(N)nc2N)c2c(c1OC)OC(C1CC1)C=C2` (centres undefined) [Iclaprim], the TEAD-luciferase reporter activity runs as follows: (compound concentration: 200 nM) inactive: 1.1; (compound concentration: 2 uM) inactive: 0.702; (compound concentration: 10 uM) inactive: 0.596.

As to `COc1cc(Cc2cnc(N)nc2N)c2c(c1OC)OC(C1CC1)C=C2` (centres undefined) [iclaprim mesylate], under “compound concentration: 2 uM”, the TEAD-luciferase reporter activity was inactive: 0.727.

Regarding `CCN(CC)CCCNc1cc(OC)cc2cccnc12`, the TEAD-luciferase reporter activity was inactive: -1.25 (compound concentration: 200 nM), inactive: -2.46 (compound concentration: 2 uM) and inactive: -1.87 (compound concentration: 10 uM).

In the case of `O=C(O)CNC(=O)c1nc(Cl)c2ccccc2c1O`, the TEAD-luciferase reporter activity is, setting by setting: (compound concentration: 200 nM) inactive: -0.814; (compound concentration: 2 uM) inactive: -0.341; (compound concentration: 10 uM) inactive: 1.07.

Consider `C[C@@H](c1ccc2nccn2c1)n1nnc2ncc(-c3cnn(C)c3)nc21` [Savolitinib], for which the TEAD-luciferase reporter activity (compound concentration: 200 nM) is inactive: 0.0899, the TEAD-luciferase reporter activity (compound concentration: 2 uM) is inactive: -0.815 and the TEAD-luciferase reporter activity (compound concentration: 10 uM) was inactive: -0.78.

Take `CCCC[C@]1(CC)CS(=O)(=O)c2cc(CNC(CC(=O)O)CC(=O)O)c(OC)cc2[C@@H](c2ccccc2)N1`: the TEAD-luciferase reporter activity is inactive: -0.418 (compound concentration: 200 nM), inactive: -1.31 (compound concentration: 2 uM) and inactive: 0.451 (compound concentration: 10 uM).

For `COc1ccc(C(=O)c2c(C)oc3ccc(O)cc23)c(OC)c1OC`, the TEAD-luciferase reporter activity reads like this: (compound concentration: 200 nM) inactive: -1.74; (compound concentration: 2 uM) inactive: 3.45; (compound concentration: 10 uM) inactive: 0.000311.

`CN(C)CCN(Cc1cccs1)c1ccccn1`: under “compound concentration: 2 uM”, the TEAD-luciferase reporter activity is inactive: 1.

Consider `CN(C)CCN(Cc1cccs1)c1ccccn1` [Methapyrilene hydrochloride], for which the TEAD-luciferase reporter activity reads like this: (compound concentration: 200 nM) inactive: -0.95; (compound concentration: 10 uM) inactive: -0.185.

Regarding `COc1cc2nccc(Oc3ccc(NC(=O)NC4CC4)c(Cl)c3)c2cc1C(N)=O` [Lenvatinib mesylate], the TEAD-luciferase reporter activity was inactive: -0.143 (compound concentration: 200 nM), inactive: -2.95 (compound concentration: 2 uM) and inactive: -2.4 (compound concentration: 10 uM).

For `CCCNC(=O)Nc1ccc(OC)cc1C`, the TEAD-luciferase reporter activity reads like this: (compound concentration: 200 nM) inactive: -3.22; (compound concentration: 2 uM) inactive: 2.72; (compound concentration: 10 uM) inactive: 1.07.

As for `CC(C)C[C@H](N)C(=O)N1CCC[C@H]1C(=O)N[C@@H](Cc1ccc(O)cc1)C(=O)N[C@@H](Cc1ccccc1)C(=O)N[C@@H](CC(=O)O)C(N)=O`, the TEAD-luciferase reporter activity (compound concentration: 200 nM) is inactive: -1.74, the TEAD-luciferase reporter activity (compound concentration: 2 uM) is inactive: 0.935 and the TEAD-luciferase reporter activity (compound concentration: 10 uM) is inactive: -0.526.

On to `CC(C)(C)CC(C)(C)c1ccc(OCCOCCOCCOCCOCCOCCOCCO)cc1`, for which the TEAD-luciferase reporter activity is, setting by setting: (compound concentration: 200 nM) inactive: -0.193; (compound concentration: 2 uM) inactive: 0.554; (compound concentration: 10 uM) inactive: 1.13.

Consider `CCN[C@H]1CN(CCCOC)S(=O)(=O)c2sc(S(N)(=O)=O)cc21` [brinzolamide], for which, under “compound concentration: 2 uM”, the TEAD-luciferase reporter activity was inactive: 0.951.

In the case of `CCN[C@H]1CN(CCCOC)S(=O)(=O)c2sc(S(N)(=O)=O)cc21` [Brinzolamide], the TEAD-luciferase reporter activity was inactive: -1.26 (compound concentration: 200 nM) and inactive: -0.904 (compound concentration: 10 uM).

With `COC(=O)c1cc(OC)c2c(c1-c1c(C(=O)OC)cc(OC)c3c1OCO3)OCO2` [Bifendate], the TEAD-luciferase reporter activity is inactive: 0.701 (compound concentration: 200 nM), inactive: 0.72 (compound concentration: 2 uM) and inactive: 0.774 (compound concentration: 10 uM).

With `O=C(c1cc(B(O)O)cc([N+](=O)[O-])c1)N1CCOCC1`, the TEAD-luciferase reporter activity is, setting by setting: (compound concentration: 200 nM) inactive: -0.618; (compound concentration: 2 uM) inactive: -0.81; (compound concentration: 10 uM) inactive: -0.308.

As for `CCOc1cnc(NCc2cc3c(C)nn(C)c3nc2N2CCOCC2)nc1`, the TEAD-luciferase reporter activity (compound concentration: 200 nM) was inactive: 1.71, the TEAD-luciferase reporter activity (compound concentration: 2 uM) is inactive: -1.12 and the TEAD-luciferase reporter activity (compound concentration: 10 uM) was active: 5.02.

Turning to `CCC(c1ccccc1)c1c(O)c2ccccc2oc1=O` (centres undefined) [Phenprocoumon(Marcumar)], the TEAD-luciferase reporter activity (compound concentration: 200 nM) was inactive: -0.904, the TEAD-luciferase reporter activity (compound concentration: 2 uM) was inactive: -1.47 and the TEAD-luciferase reporter activity (compound concentration: 10 uM) was inactive: -0.626.

On to `CC(C)(CCCCOc1cc(-c2ccccc2)cc(-c2ccccc2)n1)c1nn[nH]n1`, for which the TEAD-luciferase reporter activity was inactive: 0.0893 (compound concentration: 200 nM), inactive: -0.351 (compound concentration: 2 uM) and inactive: 1.66 (compound concentration: 10 uM).

`CC(=O)N(C)Cc1ccc2c(c1)OCO2`: the TEAD-luciferase reporter activity runs as follows: (compound concentration: 200 nM) inactive: -1.01; (compound concentration: 2 uM) inactive: -0.59; (compound concentration: 10 uM) inactive: 1.8.

For the compound `O=C(O)c1ccc(CN2C[C@@H]3C[C@H]2CN3Cc2ccc(Oc3ccc(-c4ncco4)cc3)cc2)cc1` [Acebilustat], the TEAD-luciferase reporter activity reads like this: (compound concentration: 200 nM) inactive: -0.768; (compound concentration: 2 uM) inactive: -0.0445; (compound concentration: 10 uM) inactive: -0.0236.

Consider `O=C(O)CCCN1CCC[C@H]1COc1ccc(Oc2ccc(Cl)cc2)cc1`, for which the TEAD-luciferase reporter activity by setting is: (compound concentration: 200 nM) inactive: 0.409; (compound concentration: 2 uM) inactive: -1.91; (compound concentration: 10 uM) inactive: 3.19.

Turning to `CCCCCCCCCN1C[C@H](O)[C@@H](O)[C@H](O)[C@H]1CO`, the TEAD-luciferase reporter activity is inactive: -1.28 (compound concentration: 200 nM), inactive: 0.97 (compound concentration: 2 uM) and inactive: -1.01 (compound concentration: 10 uM).

For the compound `CCCCCN(CCCCC)C(=O)C(CCC(=O)O)NC(=O)c1ccc(Cl)c(Cl)c1` (centres undefined) [lorglumide], the TEAD-luciferase reporter activity (compound concentration: 2 uM) is inactive: 3.02.

Take `CCCCCN(CCCCC)C(=O)C(CCC(=O)O)NC(=O)c1ccc(Cl)c(Cl)c1` (centres undefined) [Lorglumide]: the TEAD-luciferase reporter activity reads like this: (compound concentration: 200 nM) inactive: -0.0245; (compound concentration: 10 uM) inactive: 1.71.

Consider `CC(=O)[O-]` [calcium acetate], for which the TEAD-luciferase reporter activity runs as follows: (compound concentration: 200 nM) inactive: 0.391; (compound concentration: 2 uM) inactive: -0.24; (compound concentration: 10 uM) inactive: 1.24.

Turning to `CC(=O)[O-]` [Zinc acetate], the TEAD-luciferase reporter activity (compound concentration: 2 uM) is inactive: -1.45.

With `CCC(=O)OC1C(OC2C(C)C(OC3CC(C)(OC)C(O)C(C)O3)C(C)C(=O)OC(CC)C(C)(O)C(O)C(C)C(=O)C(C)CC2(C)O)OC(C)CC1N(C)C` (centres undefined) [Erythromycin stinoprate], the TEAD-luciferase reporter activity was active: 6.17 (compound concentration: 200 nM), inactive: 0.686 (compound concentration: 2 uM) and inactive: -0.0961 (compound concentration: 10 uM).

The values above are taken from the supplement of paper PMC10735217.
